In patent publication US20100279402A1:
No constants are given. Whether binding was seen depends on the method and setting. For some of these results: Binding seen in cells or lysates may run through a third protein. Some results given as binding are weak or reduced against the parent protein; the word gives no strength. Tags and fused reporters may be left off the sequences shown. One block for each binder: values may come before it.

How the values were obtained:
[1] = target: T1, Methanosarcina mazei (Mm) proteasome subunit β with C-terminal 6×histidine (Methanosarcina mazei) (UniProt Q8PZ04); assay: Ni-NTA pull down of His-tagged β from HEK293 lysate
T1 sequence: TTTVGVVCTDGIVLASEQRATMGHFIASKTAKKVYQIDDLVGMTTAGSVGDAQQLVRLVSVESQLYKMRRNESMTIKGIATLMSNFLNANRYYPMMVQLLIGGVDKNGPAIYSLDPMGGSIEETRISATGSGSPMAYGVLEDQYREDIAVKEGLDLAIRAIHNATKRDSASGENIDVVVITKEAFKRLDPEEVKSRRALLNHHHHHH

[2] = target: T1, Methanosarcina mazei (Mm) proteasome subunit β with C-terminal 6×histidine (Methanosarcina mazei); assay: glycerol gradient ultracentrifugation, co-fractionation in fractions 20-25/37

- binding [1]: binds
- binding [2]: binds
B1: Methanosarcina mazei (Mm) proteasome subunit α (enzyme)
chain: MQMAPQMGYDRAITVFSPDGRLFQVEYAREAVKRGTTAVGIKAADGVVLLVDKRITSRLVEAESIEKIFQIDDHIGAATSGLVADARSLVDRARVEAQVNRVSYDELIGVEVISKKICDHKQTYTQYGGVRPYGTALLIAGVDDNKPRLFETDPSGALLEYKATAIGAGRNAVVEVFEADYREDMNIDAAILLGMDALYKAAEGKFDAGTLEVGVVSLEDKKFRKLGPEEVENYVHQILEKHKGNENKE

- binding [1]: binds
- binding [2]: binds
B2: Methanosarcina mazei (Mm) proteasome Δ(2-13)α subunit (enzyme)
chain: MTVFSPDGRLFQVEYAREAVKRGTTAVGIKAADGVVLLVDKRITSRLVEAESIEKIFQIDDHIGAATSGLVADARSLVDRARVEAQVNRVSYDELIGVEVISKKICDHKQTYTQYGGVRPYGTALLIAGVDDNKPRLFETDPSGALLEYKATAIGAGRNAVVEVFEADYREDMNIDAAILLGMDALYKAAEGKFDAGTLEVGVVSLEDKKFRKLGPEEVENYVHQILEKHKGNENKE
